These results are taken from publication PMC4177214.

Sequences of proteins named here, by UniProt entry; tags and fusion partners are left off. A change or cut given only in a name is not applied to a line headed by its entry.
UniProt Q9VCG6: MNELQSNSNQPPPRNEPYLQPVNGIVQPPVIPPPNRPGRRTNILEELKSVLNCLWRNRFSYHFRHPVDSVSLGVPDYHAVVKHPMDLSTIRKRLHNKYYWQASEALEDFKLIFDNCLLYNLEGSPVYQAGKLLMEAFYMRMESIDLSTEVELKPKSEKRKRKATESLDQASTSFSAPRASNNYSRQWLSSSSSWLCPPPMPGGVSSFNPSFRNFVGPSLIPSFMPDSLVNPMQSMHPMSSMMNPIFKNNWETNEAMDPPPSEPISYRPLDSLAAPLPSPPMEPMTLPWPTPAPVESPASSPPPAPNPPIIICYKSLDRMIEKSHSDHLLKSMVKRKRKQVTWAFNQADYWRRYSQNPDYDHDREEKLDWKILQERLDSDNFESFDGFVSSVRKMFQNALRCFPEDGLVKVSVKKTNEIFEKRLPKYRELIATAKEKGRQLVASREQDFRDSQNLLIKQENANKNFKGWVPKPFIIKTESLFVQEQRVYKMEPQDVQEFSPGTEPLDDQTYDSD

No constants are given. Whether binding was seen depends on the method and setting. Binding calls can cover weak binding; strength is not graded here.

Common to all, as to assay: two-hybrid; Matchmaker GAL4 Two-Hybrid System 3 (Clontech); every coding region in pGBKT7 (DBD, bait) and pGADT7 (AD, prey); read-out colony growth and blue colour (lacZ)
In assay [1] the target is Cannonball (Can) (Drosophila melanogaster) (UniProt Q9VT91).
The target of assay [2] is tBRD-2 (testis-specifically expressed bromodomain-containing protein-2) (Drosophila melanogaster) (UniProt Q4V5A7).
Assay [3] has as its target tBRD-3 (testis-specifically expressed bromodomain-containing protein-3) (Drosophila melanogaster) (UniProt Q4V6Y4).

For the substance “tBRD-1 (testis-specifically expressed bromodomain-containing protein-1) (from UniProt Q9VCG6)”, the binding result in assay [1], in assay [2] and in assay [3] was “binds” each time.
In the case of “tBRD-2 (testis-specifically expressed bromodomain-containing protein-2) (from UniProt Q4V5A7)”, the binding result in assay [1] is “no binding”.
Same read-out and setting: the result for “tBRD-3 (testis-specifically expressed bromodomain-containing protein-3) (from UniProt Q4V6Y4)” reads “no binding”.
